# Reference: PubChem BioAssay AID977628 (Broad Institute, 2014)
# The whole screen tested about 1,900 compounds, of which fewer than 10 were called active. The inconclusive results got no clear call from the source; some entries with a clear call stand among them for comparison.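 How the source made its calls: active means compound lowering the normal-ribosome reporter at least twice as much as the humanized-ribosome reporter, growth loss under a set limit; inconclusive means no clear call, values can overlap the other calls; inactive means the rest.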
# Experiment: growth of wild-type and h24-humanized E. coli strains – h24 mutant RFP vs wild-type GFP, cherry-pick, dose response (AID 977628)
# Conditions: E. coli WT GFP strain growth, fluorescence, 24 h; at 50 µM (top of the series) unless noted
row,Structure (SMILES),"activity change, negative = inhibition"
1,Cn1c(CO)cnc1SCC(=O)c1ccc(Br)cc1,inactive: -5.83
2,CS(=O)(=O)c1ccc(C(=O)Nc2nc(-c3ccco3)c(-c3ccco3)s2)cc1,inconclusive: -17.1
3,O=C(O)c1cc(-c2ccc(Cl)s2)nc2ccccc12,inconclusive: -23.8
4,c1cc2cc(-c3c(-c4ccc5c(c4)OCO5)noc3-c3ccsc3)ccc2[nH]1,inactive: -9.56
5,COC(=O)c1cccc(CN2C(=O)SC(Nc3ccc(C)cc3)C2=O)c1 (centres undefined),inconclusive: -24.9
6,C[C@@H]1CCCCO[C@H](CN(C)C(=O)CCCN(C)C)[C@H](C)CN([C@H](C)CO)C(=O)c2cc(NC(=O)Nc3cccc4ccccc34)ccc2O1,inconclusive: -1.8
7,CS(=O)(=O)N(CC(=O)N1CCc2ccccc2C1)c1cccc(Br)c1,inconclusive: -8.48
8,COC(=O)c1nc(-c2ccc(C)cc2)[nH]c1C(C)(C)C,inactive: -14.2
9,COC(=O)CNC(=O)COC(=O)c1ccc(Cl)nc1,inactive: -5.93
10,CC(=O)Nc1cccc(Nc2nc(-c3ccccc3)nc3ccccc23)c1,inconclusive: -27.2
11,CN(C(=O)c1cccc(NC(=O)Cc2cccc(NC(=O)C3CCN(C(=O)CCc4ccccc4)CC3)c2)c1)C1CC1,inconclusive: -32
12,CC1(c2ccc3ccccc3c2)NC(=O)N(CC(=O)N2CCN(c3ccccc3O)CC2)C1=O (centres undefined),inactive: -6.53
13,Cc1noc(C)c1NC(=O)Nc1ccc2c(c1)C(=O)N([C@H](C)CO)C[C@H](C)[C@H](CN(C)C(=O)Nc1ccc3c(c1)OCO3)OCCCC[C@@H](C)O2,inconclusive: 20.6
14,COc1cccc(-c2ccc([C@@H]3[C@H](CO)N4CCCCN(S(=O)(=O)c5cccs5)C[C@@H]34)cc2)c1,inconclusive: -16.5
15,O=C(CN1CCN(S(=O)(=O)c2ccc(Cl)cc2)CC1)Nc1ccc2c(c1)CCC2,inconclusive: -14.2
16,CCOC(=O)c1ccc(NC(=O)COc2ccc(CNCCO)cc2OCC)cc1,inactive: -4.67
17,Cc1ccsc1C(=O)N1CCCC(C(=O)c2cc(F)ccc2F)C1 (centres undefined),inconclusive: -15.9
18,O=c1[nH]c2cc([N+](=O)[O-])ccc2c2ccccc12,inconclusive: -8.98
19,CC1CN(CC(=O)Nc2nc3ccccc3s2)CC(C)O1 (centres undefined),inconclusive: -7.01
20,Cc1ccc(C(=O)Nc2ccc(C)c(S(=O)(=O)Nc3ccccc3Cl)c2)s1,inconclusive: -25.2
21,Cc1ccc(C(=O)NCc2ccccc2)c(F)c1F,inactive: 3.65
22,COC(=O)CC#C[C@H](C)[C@@H](NS(=O)(=O)c1ccc([N+](=O)[O-])cc1)C(C)(C)C,inconclusive: -12.5
23,COc1cccc(C(=O)NC(C)c2ccc(Br)cc2)c1 (centres undefined),inactive: -10.8
24,Brc1ccc(-c2nc3c4ccccc4ccn3c2Cc2ccccc2)cc1,inactive: 0.426
25,Cc1ccc(OCC(O)CN2CCN(c3ccccn3)CC2)c(C)c1 (centres undefined),inconclusive: -15.6
26,C[C@H](CO)N1C[C@H](C)[C@@H](CN(C)C(=O)CCCN(C)C)OCCCC[C@H](C)Oc2ccc(NC(=O)Nc3cccc4ccccc34)cc2C1=O,inconclusive: -5.01
27,CCN=C1NN=C(c2ccc(C)cc2)CS1,inactive: -8.07

# By substructure, those above with two or more sulfur atoms.
row,Structure (SMILES),"activity change, negative = inhibition"
2,CS(=O)(=O)c1ccc(C(=O)Nc2nc(-c3ccco3)c(-c3ccco3)s2)cc1,inconclusive: -17.1
14,COc1cccc(-c2ccc([C@@H]3[C@H](CO)N4CCCCN(S(=O)(=O)c5cccs5)C[C@@H]34)cc2)c1,inconclusive: -16.5
20,Cc1ccc(C(=O)Nc2ccc(C)c(S(=O)(=O)Nc3ccccc3Cl)c2)s1,inconclusive: -25.2

# Further records follow.

row,Structure (SMILES),"activity change, negative = inhibition"
1,Cc1cc(C(=O)COC(=O)CNC(=O)c2ccccc2)c(C)n1CC1CCCO1 (centres undefined),inactive: -9.97
2,C[C@H]1CCCCO[C@@H](CN(C)C)[C@@H](C)CN([C@@H](C)CO)C(=O)c2cc(NC(=O)Nc3cccc4ccccc34)ccc2O1,inconclusive: -3.16
3,Cc1ccccc1CSc1nnc(-c2ccncc2)o1,inconclusive: -12.1
4,COc1ccc(NC(=O)Nc2cccc3c2O[C@H](CN(C)S(=O)(=O)c2ccc(Cl)cc2)[C@@H](C)CN([C@H](C)CO)C3=O)cc1,inconclusive: -5.31
5,Cc1ccccc1-c1ccc([C@@H]2[C@@H](CO)N3CCCCN(C(=O)Nc4ccc(F)cc4)C[C@@H]23)cc1,inconclusive: -46.9
6,Cc1cc(NC(=O)c2cccc(Oc3ccccc3)c2)n[nH]1,inconclusive: -4.86
7,COc1ccc(C#Cc2ccc([C@@H]3[C@@H](CO)N4CCCCN(C(=O)Nc5ccccc5F)C[C@H]34)cc2)cc1,inconclusive: -6.39
8,O=S(=O)(Nc1cccc(-c2ccc(N3CCCCCC3)nn2)c1)c1ccc(F)cc1,inconclusive: -34.5
9,CC(OC(=O)CCc1c[nH]c2ccccc12)C(=O)c1ccccc1 (centres undefined),inconclusive: -26.5
10,O=[N+]([O-])c1ccc(Cl)cc1NCc1cccnc1,inconclusive: -16.4
11,COc1cc(OC)c(NS(=O)(=O)c2cccc(C(=O)OCC(=O)NCC3CCCO3)c2)cc1Cl (centres undefined),inactive: -12
12,CC(OC(=O)COc1ccccc1)C(=O)NC1CCCC1 (centres undefined),inactive: -8.73
13,C(=C\c1ccc(C2[C@H]3CNC[C@@H]2N3Cc2nccs2)cc1)/c1ccccc1 (some centres undefined),inconclusive: -1.18
14,CC(=O)Nc1ccc(S(=O)(=O)Nc2ccc(C)c([N+](=O)[O-])c2)cc1,inconclusive: -8.2
15,O=C(CC1C(=O)NCCN1CC1CCCCC1)NCc1ccc(F)cc1F (centres undefined),inconclusive: -13.8
16,COc1ccc(-c2csc(N)n2)cc1F,inactive: -3.15
17,COc1cc(CCN(C(=O)c2cc3ccccc3[nH]2)C(c2ccccn2)c2nc3ccccc3[nH]2)cc(OC)c1 (centres undefined),inactive: -10.8
18,C[C@@H]1CCCCO[C@@H](CN(C)C(=O)CCCN(C)C)[C@@H](C)CN([C@H](C)CO)C(=O)c2cc(NC(=O)Nc3cccc4ccccc34)ccc2O1,inconclusive: 5.38
19,CC1=CC(C)(C)N(C(=O)CSc2nnc(C)s2)c2ccc(C)cc21,inconclusive: -3.19
20,O=C(Nc1cccc(Cl)c1)N1C[C@H]2[C@@H](c3ccccc31)[C@H](CO)N2Cc1ccncc1,inconclusive: -31.4
21,O=C(CSc1nc2ccccc2n1S(=O)(=O)c1cccc([N+](=O)[O-])c1)NCCc1ccccc1,inactive: -8.42
22,O=C(NCCc1csc(-c2ccccc2)n1)c1ccccc1F,inconclusive: -21.5
23,Cc1ccc(C(=O)Nc2ccc3ncccc3c2)cc1,inactive: -11.6
24,COCc1ccc(C(=O)N2CCCC(C(=O)c3ccc(Cl)cc3C)C2)o1 (centres undefined),inactive: -8.78
25,C[C@@H]1CCCCO[C@@H](CN(C)C)[C@H](C)CN([C@@H](C)CO)C(=O)c2cc(NC(=O)Nc3cccc4ccccc34)ccc2O1,inactive: 6.25
26,O=C(Nc1ccccc1Cl)N1C[C@H]2[C@@H](c3ccccc31)[C@@H](CO)N2Cc1ccccc1,inconclusive: -30.4
27,CS(=O)(=O)NCCSc1cc(C(F)(F)F)nc2ccccc12,inconclusive: -15.1

row,Structure (SMILES),"activity change, negative = inhibition"
1,O=C(C[C@H]1CC[C@H](NC(=O)Nc2ccccc2F)[C@H](CO)O1)NCc1ccc(-c2ccccc2)cc1,inconclusive: -11.8
2,S=c1nc(-c2cccc(Br)c2)[nH][nH]1,inactive: -8.15
3,Cc1ncoc1C(=O)NCCC(c1ccccc1)c1ccccc1,inconclusive: -22.4
4,Cc1cccc(NC(=O)CN(C)S(=O)(=O)c2cccs2)c1,inconclusive: -24.6
5,Cn1cnc([N+](=O)[O-])c1Oc1ccccc1,inactive: -2.13
6,Cc1csc2c(N3CCC(C(=O)O)CC3)ncnc12,inconclusive: -13
7,COc1cccc(CN(C)Cc2nc(Cc3ccccc3Cl)no2)c1,inconclusive: -6.8
8,COc1ccc(OC(C)C(=O)Nc2cccc(F)c2)cc1 (centres undefined),inconclusive: -8.31
9,O=C(NCc1cccnc1)C1CCN(S(=O)(=O)c2cc([N+](=O)[O-])ccc2Cl)CC1,inactive: -12.7
10,COc1ccc(C#Cc2ccc3c(c2)[C@@H]2[C@@H](CCN2Cc2nccs2)[C@@H](CO)N3)cc1,inconclusive: -23.8
11,Cc1cc(F)ccc1-c1cc(C(=O)NCC2CCCCC2)[nH]n1,inconclusive: -25.5
12,O=C1N[C@@H](Cc2ccccc2)COC(=O)[C@H](Cc2ccc(F)cc2)C/C=C\C[C@H]1CC(=O)N(CCO)Cc1ccccc1,inconclusive: -9.55
13,COc1ccc(-c2cc(C(=O)N3CCCCC3)no2)cc1OC,inconclusive: -10.8
14,CN(c1ccccc1)S(=O)(=O)c1cccc(NC(=O)CCNC(=O)c2ccc([N+](=O)[O-])cc2)c1,inconclusive: -8.91
15,C=CCNC(=O)c1ccccc1CCc1ccccc1,inactive: -3.38
16,CC(C)NC(=O)N(C)C[C@H]1OCCCC[C@@H](C)Oc2ccc(NC(=O)c3ccccc3)cc2C(=O)N([C@@H](C)CO)C[C@H]1C,inconclusive: -3.54
17,c1ccc(CSCc2ccccc2)cc1,inactive: 0.759
18,NS(=O)(=O)c1ccc(Nc2c([N+](=O)[O-])cncc2[N+](=O)[O-])cc1,inconclusive: -28.1
19,O=C(CN1CC[n+]2c(-c3cccs3)csc21)c1ccc(-c2ccccc2)cc1,inactive: -2.24
20,Cc1cccc(C(=O)NCC(=O)N2CC=C(c3ccccc3)CC2)c1,inconclusive: -11.1
21,C[C@H](CO)N1C[C@H](C)[C@H](CN(C)C(=O)CCCN(C)C)OCCCC[C@H](C)Oc2ccc(NC(=O)Nc3cccc4ccccc34)cc2C1=O,inconclusive: 7.27
22,CC[n+]1c(C)cc2c(sc3ccccc32)c1C,inactive: -10.4
23,CC(C)CC#Cc1ccc([C@@H]2[C@@H](CO)N3C(=O)CN(C(=O)Cc4ccccc4)C[C@@H]23)cc1,inconclusive: -14.5
24,CC(OC(=O)CCc1nc2ccccc2c(=O)[nH]1)C(=O)c1ccc(Br)cc1 (centres undefined),inconclusive: -16.6
25,CC(C)(Nc1ccccc1)C(=O)c1ccccc1,inconclusive: -2.13
